Assay results: publication PMC6616073
Results are given in words; binding and its absence hold for the method and conditions named. Some binding calls cover weakened binding; strength is not graded here.

Amino acid sequences for entries named in this document (tags omitted). Residues count along the entry.
UniProt P36544, residues 23-502: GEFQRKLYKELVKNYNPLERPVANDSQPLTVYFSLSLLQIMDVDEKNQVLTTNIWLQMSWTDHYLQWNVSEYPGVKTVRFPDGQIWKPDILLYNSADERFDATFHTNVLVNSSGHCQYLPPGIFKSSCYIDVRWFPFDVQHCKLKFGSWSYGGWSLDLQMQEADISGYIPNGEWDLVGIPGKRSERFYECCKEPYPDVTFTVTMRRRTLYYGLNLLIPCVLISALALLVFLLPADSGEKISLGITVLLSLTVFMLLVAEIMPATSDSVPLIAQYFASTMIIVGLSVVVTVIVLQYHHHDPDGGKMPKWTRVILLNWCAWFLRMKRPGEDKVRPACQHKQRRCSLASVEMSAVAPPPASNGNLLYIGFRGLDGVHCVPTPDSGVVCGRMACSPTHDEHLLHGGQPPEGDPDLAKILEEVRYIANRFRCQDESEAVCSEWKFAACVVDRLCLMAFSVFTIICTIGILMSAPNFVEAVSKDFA
UniProt P60615, residues 22-95: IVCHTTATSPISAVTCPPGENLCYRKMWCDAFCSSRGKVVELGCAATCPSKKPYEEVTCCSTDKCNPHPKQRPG

Molecular target: human α7 nicotinic acetylcholine receptor stably expressed in the rat pituitary tumor-derived cell line GH4C1 (human) (UniProt P36544)
Experiment: radioligand binding; only the binder purified

Substance: radioiodinated α-bungarotoxin (from UniProt P60615 22-95) (ligand)
- binding: binds
